In the supplement of paper PMC12009310:
Where a name gives a salt, the structure may show the parent alone. ± gives the standard deviation of the averaged measurements. The list shows a part of the results. Plates or batches differ in their baseline, so values are only roughly comparable.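 The cells are a mouse kidney inner medullary collecting duct line, silenced either for the ciliary gene Rpgrip1l or with a non-targeting control siRNA.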

Each compound was assayed on mIMCD3 (assay: robust z score of cilia incidence (% cells with single cilium) vs plate controls; higher = more ciliated cells). Conditions: 10 µM; 48 h; siRNA: siScr.

| Structure (SMILES) | robust z score of cilia incidence |
| --- | --- |
| O=C1NN(C(=O)Nc2ccc(Br)cc2)[C@@H](c2ccccc2)[C@@H]1c1ccccc1 | -2 ± 3.1 |
| CCCCCCCC/C=C\CCCCCCCC(=O)NCc1ccc(O)c(OC)c1 [Olvanil] | -46.4 ± 7 |
| CCOC(=O)c1cnc2c(cnn2CC)c1NN=C(C)C [Etazolate hydrochloride] | 1.94 ± 1.8 |
| CC(C)[N+]1(C)[C@@H]2CC[C@H]1C[C@@H](OC(=O)C(CO)c1ccccc1)C2 (some centres undefined) [Ipratropium bromide] | -1.23 ± 4.3 |
| O=C(Nc1ccccc1)N[C@@H]1C[C@@H](C(=O)O)Nc2cc(Cl)cc(Cl)c21 | 0.753 ± 0.77 |
| O=C(Nc1ccncc1)c1cc([N+](=O)[O-])ccc1Cl | -0.33 ± 0.76 |
| CN=c1nc(-c2ccccc2)n(-c2ccccc2)s1 | -6.64 ± 2.9 |
| N[C@@H](Cc1cc(-c2ccc(Cl)cc2Cl)cc(CP(=O)(O)O)c1O)C(=O)O | 4.18 ± 3.1 |
| Nc1ccc(-c2cccc3c(=O)cc(N4CCOCC4)oc23)cc1 | -7.07 ± 1.3 |
| Nc1nc2c(ccc3ccccc32)s1 | 0.26 ± 0.86 |
| Clc1ccc2c(c1)N=C(N1CCNCC1)c1ccccc1N2 [N-Desmethylclozapine] | -24.8 ± 10 |
| COc1cc(NC(=O)c2ccccn2)ccc1Cl | 5.48 ± 1.4 |
| O=c1c(-c2ccc(O)cc2)coc2cc(O)cc(O)c12 [Genistein] | -1.04 ± 0.72 |
| CC(C)(Sc1ccc(CCN(CCCCC2CCCCC2)C(=O)NC2CCCCC2)cc1)C(=O)O | -120 ± 66 |
| CCC(CC)(CC(=O)Nc1cccc(/C=C/c2nc(C3CCC3)cs2)c1)C(=O)O [Cinalukast] | 3.6 ± 6.8 |
| N#Cc1ccccc1OCC(O)CNCCNC(=O)Nc1ccccc1 (centres undefined) | 1.19 ± 0.29 |
| CN(C)CCCSc1ccccc1NC(=O)/C=C/c1ccccc1 [Cinanserin hydrochloride] | -15 ± 4 |
| O=C(O)Cc1ccc(OCCNC[C@H](O)c2ccccc2)cc1 [ZD 2079 hydrochloride] | 0.365 ± 1.6 |
| CC(=O)NCCc1c(Cc2ccccc2)[nH]c2ccccc12 [Luzindole] | -0.704 ± 3.8 |
| Cc1ccc(/C(=C\CN2CCCC2)c2ccccn2)cc1 [trans-Triprolidine hydrochloride] | -2.68 ± 1.3 |

Single values from the entries so far:
`CCOC(=O)c1cnc2c(cnn2CC)c1NN=C(C)C` [Etazolate hydrochloride] – robust z score of cilia incidence: 1.94 ± 1.8
`CC(C)(Sc1ccc(CCN(CCCCC2CCCCC2)C(=O)NC2CCCCC2)cc1)C(=O)O` – robust z score of cilia incidence: -120 ± 66

More compounds follow:

| Structure (SMILES) | robust z score of cilia incidence |
| --- | --- |
| COc1cc(N)c(Cl)cc1C(=O)OCCCN1CCCCC1 | -2.86 ± 2.5 |
| C[N+]1(C)CCC(OC(=O)C(c2ccccc2)c2ccccc2)CC1 | 2.5 ± 1.6 |
| Cc1nnc(-c2ccc3occ(-c4ccc([S+](C)[O-])cc4)c3c2)o1 (centres undefined) | 1.18 ± 1.4 |
| COc1ccc2c(c1)c(CC(=O)O)c(C)n2C(=O)c1ccc(Cl)cc1 [Indomethacin] | 3.38 ± 4.5 |
| CC[N+](CC)(CC)CC(=O)Nc1c(C)cccc1C [QX 314 chloride] | 2.43 ± 2.8 |
| CNCCC(Oc1ccccc1OC)c1ccccc1 (centres undefined) [Nisoxetine hydrochloride] | -6.32 ± 3.8 |
| C=CCc1cccc(/C=N/NC(=O)CN2CCN(Cc3ccccc3)CC2)c1O | -49.6 ± 15 |
| CC(C)(C=O)Cc1cc(C(C)(C)C)c(O)c(C(C)(C)C)c1 | -0.419 ± 3.2 |
| CNC(=O)[C@H]1O[C@@H](n2cnc3c(NCc4cccc(I)c4)ncnc32)[C@H](O)[C@@H]1O | 0.442 ± 0.041 |
| CN(C)C/C=C(/c1ccc(Br)cc1)c1cccnc1 [Zimelidine dihydrochloride] | -2.55 ± 2.7 |
| Cc1nn(-c2ccccc2)c(C)c1C=NN1CCN(Cc2ccccc2)CC1 | -12.7 ± 5.5 |
| Oc1cc2c(cc1O)C(c1ccccc1)CNCC2 (centres undefined) | -0.905 ± 0.37 |
| COc1cccc2c1C(=O)c1c(O)c3c(c(O)c1C2=O)C[C@@](O)(C(C)=O)C[C@@H]3O[C@H]1C[C@H](N)[C@H](O)[C@H](C)O1 [Daunorubicin hydrochloride] | -75.3 ± 18 |
| c1nc(CC2CCNCC2)c[nH]1 [Immepip dihydrobromide] | -4.23 ± 5.4 |
| CCC(=O)NC1CCc2cccc(OC)c2C1 (centres undefined) | -0.329 ± 1.8 |
| COc1cc2nc(N3CCN(C(=O)c4ccco4)CC3)nc(N)c2cc1OC [Prazosin hydrochloride] | -4.84 ± 0.12 |
| CCN(CC)CC1CCCCN1CC(=O)N1c2ccccc2C(=O)Nc2cccnc21 (centres undefined) | 1.33 ± 1.1 |
| C[C@@H](NCc1cc(Br)cc2[nH]c(=O)c(=O)[nH]c12)P(=O)(O)O | 0.516 ± 0.61 |
| CC(C(=O)O)c1ccc(-c2ccccc2)c(F)c1 (centres undefined) [Flurbiprofen] | -21 ± 9.6 |
